For part of these data: Negatives hold for the conditions tested. For part of these data: At least one verdict was read from the data and is not stated in words by the source. For part of these data: Construct, isoform or probe ends are uncertain for at least one entry. For part of these data: Whether high values mean tight binding is not given here for every scale.
Columns and labels:
[1] = target: Abeta42 (UniProt P05067); assay: BLI; conditions: BLI: 10 mM potassium phosphate pH 7.2, 150 mM KCl, 0.01% Tween20, 25 °C, biotin-RNA on streptavidin sensors, protein 20 nM-20 µM, PAINT in PBS, recombinant protein
[2] = target: alpha-synuclein (UniProt P37840); assay: BLI; conditions: BLI: 10 mM potassium phosphate pH 7.2, 150 mM KCl, 0.01% Tween20, 25 °C, biotin-RNA on streptavidin sensors, protein 20 nM-20 µM, PAINT in PBS, recombinant protein
[3] = target: alpha-synuclein aggregates (UniProt P37840); assay: single-molecule PAINT (TIRF); conditions: no substantial binding, recombinant protein
[4] = target: Abeta42 aggregates (UniProt P05067); assay: single-molecule PAINT (TIRF); conditions: no substantial binding, recombinant protein
[5] = target: TDP-43 RRM1-2 aggregates (UniProt Q13148); assay: single-molecule PAINT (TIRF); conditions: recombinant protein, residues 102-269, protein details: His6-SUMO tag cleaved (TEV)
[6] = target: TDP-43 RRM2 (UniProt Q13148); assay: BLI; conditions: BLI: 10 mM potassium phosphate pH 7.2, 150 mM KCl, 0.01% Tween20, 25 °C; biotin-RNA on streptavidin sensors, protein 20 nM-20 µM; PAINT in PBS; recombinant protein; residues 191-269; protein details: His6-SUMO tag cleaved (TEV); label: 3' biotin
[7] = target: TDP-43 RRM1 (UniProt Q13148); assay: BLI; conditions: BLI: 10 mM potassium phosphate pH 7.2, 150 mM KCl, 0.01% Tween20, 25 °C; biotin-RNA on streptavidin sensors, protein 20 nM-20 µM; PAINT in PBS; recombinant protein; residues 102-191; protein details: His6-SUMO tag cleaved (TEV); label: 3' biotin
[8] = label: ATTO590 (5' in cell version)

**Q.** With AGCAACACCG [nApt-1] as the sequence, how does the Kd ([1]; label: 5' biotin) read?
**A.** > 10 µM

**Q.** What about the Kd ([2]; label: 5' biotin) of the same sequence?
**A.** > 10 µM

**Q.** Does AGCAACACCG [nApt-1_ATTO590] bind [3, 8]?
**A.** no binding

**Q.** Does AGCAACACCG [nApt-1_ATTO590] bind [4, 8]?
**A.** no binding

**Q.** What about the binding signal (fraction of aggregates detected vs Apt-1) [5, 8] of the same sequence?
**A.** 0.2

**Q.** Does CGGUGUUGCU [Apt-1] bind [6]?
**A.** no binding

**Q.** What about the Kd [7] of the same sequence?
**A.** 0.58 µM

**Q.** What about the Kd ([1]; label: 3' biotin) of the same sequence?
**A.** > 10 µM

**Q.** What about the Kd ([2]; label: 3' biotin) of the same sequence?
**A.** > 10 µM

**Q.** What does the source list for CGGUGUUGCU [Apt-1_ATTO590]?
**A.** binding result ([3]; label: 3' ATTO590): no binding; binding result ([4]; label: 3' ATTO590): no binding; binding result ([5]; 1 nM aptamer, PBS, label: 3' ATTO590): binds
